In article doi:10.1101/2023.07.06.548030:
No constants are given. Whether binding was seen depends on the method and setting. A result given as binding can be weak or reduced; the word gives no strength.

Amino acid sequences for entries named in this document (tags omitted). A change or cut given only in a name is not applied to a line headed by its entry.
UniProt A0A0H3C9D4: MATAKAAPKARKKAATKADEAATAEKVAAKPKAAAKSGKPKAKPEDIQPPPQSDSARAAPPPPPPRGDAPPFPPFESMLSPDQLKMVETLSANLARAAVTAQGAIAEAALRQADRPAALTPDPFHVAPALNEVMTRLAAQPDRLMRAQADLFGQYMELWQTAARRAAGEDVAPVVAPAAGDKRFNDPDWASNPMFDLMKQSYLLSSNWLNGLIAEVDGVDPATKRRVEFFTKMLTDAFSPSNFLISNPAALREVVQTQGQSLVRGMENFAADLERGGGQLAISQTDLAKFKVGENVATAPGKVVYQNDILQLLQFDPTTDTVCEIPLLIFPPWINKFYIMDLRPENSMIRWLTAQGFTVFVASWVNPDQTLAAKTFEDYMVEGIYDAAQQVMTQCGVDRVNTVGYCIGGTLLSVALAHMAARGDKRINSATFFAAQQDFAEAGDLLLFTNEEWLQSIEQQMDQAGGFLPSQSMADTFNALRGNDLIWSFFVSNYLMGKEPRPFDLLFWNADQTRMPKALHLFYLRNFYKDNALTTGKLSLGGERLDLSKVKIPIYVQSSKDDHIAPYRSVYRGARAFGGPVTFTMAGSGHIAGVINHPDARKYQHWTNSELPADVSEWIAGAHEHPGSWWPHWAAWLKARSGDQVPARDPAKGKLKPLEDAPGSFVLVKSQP

Key:
[1] = biological target: PHB polymerase PhaC (CCNA_01444), full-length (Caulobacter crescentus); experiment: SPR
[2] = biological target: phasin PhaP (CCNA_02242) (Caulobacter crescentus); experiment: SPR

binding [1]	binding [2]	Substance
binds		phasin PhaP (CCNA_02242) (from UniProt A0A0H3CBK2)
	binds	PHB polymerase PhaC (CCNA_01444), full-length (from UniProt A0A0H3C9D4) (enzyme)
